Test results reported in article PMC6733853.
These are yes or no findings as the source states them, for the method shown. Binding seen in cells or lysates may run through a third protein. Some entries that bind do so weakly or less than the wild type.

Chains of the proteins cited; added tags and fusions are not shown.
UniProt P35372: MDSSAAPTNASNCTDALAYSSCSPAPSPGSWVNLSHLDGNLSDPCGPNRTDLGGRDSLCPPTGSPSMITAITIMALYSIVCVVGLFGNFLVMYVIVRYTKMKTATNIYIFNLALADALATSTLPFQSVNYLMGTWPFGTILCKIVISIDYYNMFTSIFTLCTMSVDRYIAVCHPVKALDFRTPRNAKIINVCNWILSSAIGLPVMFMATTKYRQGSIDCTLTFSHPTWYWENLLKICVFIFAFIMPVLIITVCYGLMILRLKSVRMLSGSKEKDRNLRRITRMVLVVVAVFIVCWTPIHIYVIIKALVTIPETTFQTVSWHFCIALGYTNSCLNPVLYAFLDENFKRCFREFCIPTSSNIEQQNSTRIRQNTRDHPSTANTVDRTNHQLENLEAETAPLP
UniProt P32121: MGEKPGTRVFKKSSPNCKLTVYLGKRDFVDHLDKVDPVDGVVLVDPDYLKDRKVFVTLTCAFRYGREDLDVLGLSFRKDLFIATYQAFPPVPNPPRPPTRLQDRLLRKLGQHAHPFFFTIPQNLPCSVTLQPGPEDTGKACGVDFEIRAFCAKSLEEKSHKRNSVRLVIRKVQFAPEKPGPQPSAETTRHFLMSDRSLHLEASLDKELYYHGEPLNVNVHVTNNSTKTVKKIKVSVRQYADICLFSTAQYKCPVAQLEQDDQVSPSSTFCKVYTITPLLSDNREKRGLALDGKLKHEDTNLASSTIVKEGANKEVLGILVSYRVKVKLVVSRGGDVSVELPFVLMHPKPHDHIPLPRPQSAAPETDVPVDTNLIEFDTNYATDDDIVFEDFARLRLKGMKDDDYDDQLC
UniProt P49407: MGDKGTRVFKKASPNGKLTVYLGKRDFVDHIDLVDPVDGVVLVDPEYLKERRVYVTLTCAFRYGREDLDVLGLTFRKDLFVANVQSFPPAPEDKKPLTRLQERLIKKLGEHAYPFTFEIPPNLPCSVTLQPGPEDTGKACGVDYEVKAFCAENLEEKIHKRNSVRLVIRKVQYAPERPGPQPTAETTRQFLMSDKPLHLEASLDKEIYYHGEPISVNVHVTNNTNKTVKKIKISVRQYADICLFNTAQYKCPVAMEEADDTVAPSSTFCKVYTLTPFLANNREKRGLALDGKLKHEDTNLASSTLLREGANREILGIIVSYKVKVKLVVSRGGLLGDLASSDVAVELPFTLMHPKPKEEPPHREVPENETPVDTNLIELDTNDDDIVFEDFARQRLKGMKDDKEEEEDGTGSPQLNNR

Molecular target: sp-FLAG-MOR-GFP10 (human mu opioid receptor, MOR1) (human) (UniProt P35372)
Experiment: FRET or BRET; BRET2 in living HEK 293 cells co-transfected with sp-FLAG-hMOR-GFP10 and βarr1- or βarr2-RlucII (βarr2 also with GRK2, GRK5 or GRK6); agonists for 10 min in Tyrode's solution, read at 37 °C; ligands of cluster #3 (full agonists)

| Substance | binding |
| --- | --- |
| β-arrestin2-RlucII (from UniProt P32121 1-409) | binds |
| β-arrestin1-RlucII (from UniProt P49407 1-418) | binds |
